Data reported in paper PMC7819943, “Rice protein-binding microarrays: a tool to detect cis-acting elements near promoter regions in rice”.
The list shows a part of the results.

By UniProt entry, the sequences of proteins in these tests, tags left out.
UniProt Q0JBA9, entry or part of it: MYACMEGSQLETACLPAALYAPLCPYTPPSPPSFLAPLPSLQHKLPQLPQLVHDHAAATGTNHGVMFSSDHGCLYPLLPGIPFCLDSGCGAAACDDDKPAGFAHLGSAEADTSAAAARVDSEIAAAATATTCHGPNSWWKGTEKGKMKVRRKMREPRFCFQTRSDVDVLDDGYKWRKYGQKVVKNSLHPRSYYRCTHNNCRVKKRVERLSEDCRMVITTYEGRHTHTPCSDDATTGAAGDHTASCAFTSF

Molecular target: OsWRKY34 (Oryza sativa, UniProt Q0JBA9 1-250)
Assay: protein-binding microarray (RPBM); PBS, 2% BSA, 51.3 ng/ul salmon testes DNA, 50 uM zinc acetate, 200 nM TF, 25 C, 1 h; high values mean tight binding
Settings: protein: recombinant; tags: N-terminal polyhistidine and DsRed monomer fusion (pET32a); label: CyDye5-dUTP incorporated in the synthesized complementary strand; 3' TTTTT single-stranded linker to array surface; dsDNA, one strand shown
Method in brief: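 A custom Agilent array was converted to double-stranded form by primer extension with Cy5-dUTP and blocked with 2% BSA. Protein at 200 nM in PBS with 2% BSA, salmon testes DNA and 50 µM zinc acetate was applied for 1 h at 25 °C, followed by washing. The proteins were polyhistidine–DsRed N-terminal fusions of transcription factors, expressed in E. coli BL21-CodonPlus and Ni–NTA-purified. The binding signal is per-feature fluorescence intensity (arbitrary units) from an Axon 4000B scanner.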

Sequence	binding signal
ACGGTTTCTCTATATTTTTTTAATGGTTAGATGTAAATATCGGAGTCACCTAGTGCAG	8650 fluorescence intensity (a.u.)
TCTCACTCACTCACACTGTCACTTCCACATTTTCTTTGCTCGGAGTCACCTAGTGCAG	11100 fluorescence intensity (a.u.)
TACTCCCTCCGTATTTTAATGTATGACGCCGTTGACTTTTCGGAGTCACCTAGTGCAG	13900 fluorescence intensity (a.u.)
AGTGTTAATCTTACTCCTTGTTGTATATTGCTAAGTTTTTCGGAGTCACCTAGTGCAG	12900 fluorescence intensity (a.u.)
ACTCCAGCATGATCCACAACACCACTCACCTCATGATTTTCGGAGTCACCTAGTGCAG	8770 fluorescence intensity (a.u.)
TCCACGCGTACGTCCAGATCAAACGCCCCAGTTCCGTAGCCGGAGTCACCTAGTGCAG	8370 fluorescence intensity (a.u.)
CACCACCACCACCGCTGCTGACTTCATCGCATCAGAACCACGGAGTCACCTAGTGCAG	13200 fluorescence intensity (a.u.)
CACAACTATTTCTACTTTTATCATTCCTACCTTTTCTAATCGGAGTCACCTAGTGCAG	8180 fluorescence intensity (a.u.)
AATGCAAACTTCATTTGTACCTTTTCCCACTTTTATTACTCGGAGTCACCTAGTGCAG	8500 fluorescence intensity (a.u.)
ATCTCACCAACATTACCTTGTTTAAACCGCTGGGTCTTTTCGGAGTCACCTAGTGCAG	10000 fluorescence intensity (a.u.)
ACCGCTGCTAGCTGCCGCCCGTCCCACTTCTCCAAGAAAACGGAGTCACCTAGTGCAG	8420 fluorescence intensity (a.u.)
TGAATCCACAGCCACGCCACGCGGCCCATGCCTACGCCTCCGGAGTCACCTAGTGCAG	8550 fluorescence intensity (a.u.)
GGGTGTTCCTTGTTGTCGTCCGCCTGTCAAATCCTAGTCACGGAGTCACCTAGTGCAG	15900 fluorescence intensity (a.u.)
GCCGCCAGTTCTGCCCTCGAGCGCCGCCGCCCGCCGCGCCCGGAGTCACCTAGTGCAG	10300 fluorescence intensity (a.u.)
TTAATTTTTGTTGTTCTGGCAAACCTTTCGTTGTAATTGACGGAGTCACCTAGTGCAG	8690 fluorescence intensity (a.u.)
GTCGCAACCAACCAACCAACAACCACTCCATCAAACTAACCGGAGTCACCTAGTGCAG	8220 fluorescence intensity (a.u.)
CCGCGCCACCTCATGCCGTGACGTGCAGATCCCCTCCTCCCGGAGTCACCTAGTGCAG	9350 fluorescence intensity (a.u.)
CATCTCGTGACCTCGCGCCATTGATTTCTTCCTCTGGAGCCGGAGTCACCTAGTGCAG	9650 fluorescence intensity (a.u.)
ACGCATGCGCGCGCGCCGCCTCCACCTGCTCTCTGCTCGACGGAGTCACCTAGTGCAG	10000 fluorescence intensity (a.u.)
TACAGGCTTACAGCTAGCCAGCGTCCACTTGCACGGTTTTCGGAGTCACCTAGTGCAG	8790 fluorescence intensity (a.u.)
ATACGAGCCAAAGACCGTTGACAAGCTAGTCAACAGTCATCGGAGTCACCTAGTGCAG	8910 fluorescence intensity (a.u.)

Sequence	binding signal
CCATGTGCGCCCATCCTCCCGGCACTAACTCTCAAGCCGACGGAGTCACCTAGTGCAG	9510 fluorescence intensity (a.u.)
GGCCATGCTTGAATCTCTCGCCTGACATTCAGACTTCAGACGGAGTCACCTAGTGCAG	8390 fluorescence intensity (a.u.)
ATCTCTCTCTGTCGTCTCGCCTCGCCCAAATCAGAAGCGACGGAGTCACCTAGTGCAG	9080 fluorescence intensity (a.u.)
TCACTATCTTCACCACTGCACAAGTCATTCATTGTCTTATCGGAGTCACCTAGTGCAG	10300 fluorescence intensity (a.u.)
CGTCACGTCAACCCCACAAACTAGGTCAACACCGTCACGTCGGAGTCACCTAGTGCAG	8760 fluorescence intensity (a.u.)
ACCACCACCACCACCATCGCACTCCCAACTCCCAAGCCGCCGGAGTCACCTAGTGCAG	9280 fluorescence intensity (a.u.)
GAGGGAGGGAGGGAGGGAGACCGCGAGTGTGAGTGACTGCCGGAGTCACCTAGTGCAG	10200 fluorescence intensity (a.u.)
TCCCACTCCACCTTTGCCTCGTCGTCTCAATCGCCTTCGTCGGAGTCACCTAGTGCAG	11200 fluorescence intensity (a.u.)
TTAATTAATCATTCAGTAATGCGTGCTCTGTTTTACGTGCCGGAGTCACCTAGTGCAG	8400 fluorescence intensity (a.u.)
GATGTTTTGACTTTGATTAAAGTCAAACTAAGTTTGGCTACGGAGTCACCTAGTGCAG	11200 fluorescence intensity (a.u.)
CGCGCGTGCCCGTTTCTCTCGATCTCGCCACGGCTAGCTACGGAGTCACCTAGTGCAG	11200 fluorescence intensity (a.u.)
GTTAGTATGATTGTTAGTCAAAAGTTATCAAGTTTGATTTCGGAGTCACCTAGTGCAG	8360 fluorescence intensity (a.u.)
CACTAGGTGAGCAATTTTGTTACCACGTCCATGTGCTGATCGGAGTCACCTAGTGCAG	8810 fluorescence intensity (a.u.)
TAGGCTGTATTCTTATCCACTCATGCAGTGCTCTGATAGGCGGAGTCACCTAGTGCAG	11000 fluorescence intensity (a.u.)
TCCACCTCTCACTGTTGTTCACCGTCTCCTGGCTCCTGCCCGGAGTCACCTAGTGCAG	8570 fluorescence intensity (a.u.)
CATATGTTGTTACCTTTTGGTTGTTTGCTTTGCATTATAACGGAGTCACCTAGTGCAG	10200 fluorescence intensity (a.u.)
GCCGCCATCGTTCCTGTTCGCCGCCCGTTGTCCTTCCAATCGGAGTCACCTAGTGCAG	13000 fluorescence intensity (a.u.)
GCCACGGATAAATTTCCACCGCCTTCGCCTTCGCGAGATCCGGAGTCACCTAGTGCAG	8150 fluorescence intensity (a.u.)
GATGATCCTCACACATCAAGACTAGTATTTTGGGTTGTATCGGAGTCACCTAGTGCAG	8550 fluorescence intensity (a.u.)
TCATATACCTCGCGATCCCTCTCACCGCCGATCGATCGAGCGGAGTCACCTAGTGCAG	12100 fluorescence intensity (a.u.)
CCTATTTTCTAACGGTGCCTACGGATTTTATCCAACTTTACGGAGTCACCTAGTGCAG	9510 fluorescence intensity (a.u.)

Exported in markdown: entries from further up.

| Sequence | binding signal |
| --- | --- |
| TCCACGCGTACGTCCAGATCAAACGCCCCAGTTCCGTAGCCGGAGTCACCTAGTGCAG | 8370 fluorescence intensity (a.u.) |
| CACCACCACCACCGCTGCTGACTTCATCGCATCAGAACCACGGAGTCACCTAGTGCAG | 13200 fluorescence intensity (a.u.) |
| AATGCAAACTTCATTTGTACCTTTTCCCACTTTTATTACTCGGAGTCACCTAGTGCAG | 8500 fluorescence intensity (a.u.) |
| ATCTCACCAACATTACCTTGTTTAAACCGCTGGGTCTTTTCGGAGTCACCTAGTGCAG | 10000 fluorescence intensity (a.u.) |
| TGAATCCACAGCCACGCCACGCGGCCCATGCCTACGCCTCCGGAGTCACCTAGTGCAG | 8550 fluorescence intensity (a.u.) |
| GTCGCAACCAACCAACCAACAACCACTCCATCAAACTAACCGGAGTCACCTAGTGCAG | 8220 fluorescence intensity (a.u.) |
| GGCCATGCTTGAATCTCTCGCCTGACATTCAGACTTCAGACGGAGTCACCTAGTGCAG | 8390 fluorescence intensity (a.u.) |
| TAGGCTGTATTCTTATCCACTCATGCAGTGCTCTGATAGGCGGAGTCACCTAGTGCAG | 11000 fluorescence intensity (a.u.) |
